Consider four substances from paper PMC4848565.

In assay [1] the target is Solyc02g090430 (BiFC fusion) (tomato (Solanum lycopersicum cv. Ailsa Craig)). Kind of assay: split reporter; BiFC with 35S-pBI-NBi and 35S-pBI-CBi fusions transiently co-expressed in N. benthamiana leaf cells by Agrobacterium-mediated infiltration; at least 48 hours; YFP fluorescence by confocal microscopy, DAPI counter-stain.
For assay [2], the target named is Solyc07g065840 (tomato (Solanum lycopersicum cv. Ailsa Craig)) (UniProt P36181). Kind of assay: two-hybrid; bait in pEG202 and prey in pJG4-5, co-transfected into yeast strain EGY48; LacZ reporter (40 ug/ml X-gal, 3 days at 28 °C) and Leucine reporter; repeated at least twice.
The target in assay [3] is Solyc12g057060 (tomato (Solanum lycopersicum cv. Ailsa Craig)). The description is as above.
Assay [4] concerns the target Solyc11g069700 (tomato (Solanum lycopersicum cv. Ailsa Craig)). The assay can be described thus: split reporter; BiFC with 35S-pBI-NBi and 35S-pBI-CBi fusions transiently co-expressed in N. benthamiana leaf cells by Agrobacterium-mediated infiltration; at least 48 hours; YFP fluorescence by confocal microscopy, DAPI counter-stain.

These are yes or no findings as the source states them, for the method shown. Binding can be weak; no strength is given. For some of these results: Binding seen in cells or lysates may run through a third protein.

For “Solyc01g090750 (from UniProt A0A3Q7EK01)”, in assay [1], the binding entry is listed as “binds”.

As to “Solyc02g090430 (from UniProt A0A3Q7FAA8)”, the binding entry in assay [2] was “binds”.

For the substance “Solyc05g005930 (from UniProt A0A3Q7GDG9)”, the binding result in assay [3] was “binds”.

On to “Solyc06g082440 (from UniProt A0A3Q7H4T0)”, for which the binding result in assay [4] is “binds”.
